Source: paper PMC3940891, “Transient Overexpression of adh8a Increases Allyl Alcohol Toxicity in Zebrafish Embryos” (PLoS ONE, 2014)

What was measured:
[1] = tested on: gfp, adh8a, adh8b mRNA injected zebrafish embryos; experiment: Zebrafish embryo test after microinjection of gfp, adh8a, adh8b or adh8a/b mRNA; assay type: in vivo, zebrafish (Danio rerio); details: exposure 8-56 h, crystallization dish, strain OBI
Method: (§1) The zebrafish embryo test was performed with few modifications according to a standard operation procedure and a static exposure setup without renewal of exposure solutions (ISO 15088, 2006). The following chemicals were used: Allyl alcohol (CAS 107-18-6, purity 99.8%, Sigma-Aldrich, Deisenhofen, Germany), acrolein (CAS 107-02-8, purity ≥99.0%, Sigma-Aldrich, Deisenhofen, Germany), 4-Nitrophenol (CAS 100-02-7, PESTANAL, analytical standard, Sigma-Aldrich, Deisenhofen, Germany), and ethanol (CAS 64-17-5, purity ≥ 99.5%, Carl Roth, Germany). Stock solutions were prepared for each experiment by adding the appropriate amount for the highest test concentration to the exposure media (294.0 mg/L CaCl2*2H2O, 123.3 mg/L MgSO4*7H2O, 64.7 mg/L NaHCO3, 5.7 mg/L KCl). The solutions were prepared one day before the experiment in 100 ml closed graduated flasks and were stirred over night for approximately 14 h. Lower concentrations were obtained by serial dilutions. Fertilized eggs (embryos at 4–32 cell stage) were transferred by a pipette to 24-well plates (1 embryo per well, 10 wells per exposure concentration, Cellstar Greiner Bio-One, Frickenhausen, Germany) or crystallization glass dishes (80 mm diameter, 10–20 embryos per vial and 30 ml of exposure medium), respectively. Exposures were performed in independent triplicates on different days for 48 h from 2-50 hpf (hours post fertilization), 24–72 hpf, and 72–120 hpf. For the 24–72 hpf exposure, part of the embryos were manually dechorionated using forceps. […] At either 2, 8, 24 or 72 hpf the medium was completely removed and replaced by exposure media containing different concentrations of allyl alcohol (2 ml per well or 30 ml per crystallization dish, respectively). The Henry's law coefficients of the test chemicals (allyl alcohol: 4.99*10^−6, ethanol: 5.62*10^−6, 4-nitrophenol: 4.15*10^−10, acrolein: 1.22*10^−4; atm*m^3/mol) indicate a weak volatility for ethanol, allyl alcohol and acrolein. Therefore, in order to reduce potential evaporation, 24-well plates were covered with an adhesive foil; crystallization dishes were covered with a household plastic wrap and watch glasses. For comparison of the LC50 at different stages and the effect of dechorionation, exposure was performed in 24-well plates. For gene expression analysis and microinjection experiments crystallization dishes were used for exposure.
(§2) After 48 h of exposure referring to 50, 72 or 120 hpf stages, the number of dead embryos was counted. Dead embryos were detected according to the criteria given in the ISO standard; i.e., either coagulation, missing heartbeat, failure to develop somites or a lack of detachment of the tail-bud from the yolk sac were considered as indicators of lethality.
Injection needles were pulled from borosilicate glass capillary tubes with filament (GC100F-10; Warner Instruments, LLC, Hamden, CT) using a Narishige micropipette puller (Tokyo, Japan). Embryos were injected with the Eppendorf FemtoJet (Hamburg, Germany) through the chorion into the yolk compartment at the one-cell stage.
Plasmids with either the cDNA sequence of adh8a or adh8b were purchased from ImaGenes (Berlin, Germany, clone numbers IRBOp991G0334D for adh8a and IRBOp991F02101D for adh8b). The GFP open reading frame was cloned into the pCS2p+ Vector. For synthesis of capped mRNAs, adh8 plasmids were cut with XhoI and pCS2P+GFP was cut with KpnI. 5′ capped mRNA was synthesized with the mMessage Machine SP6 Kit (Life Technologies/Ambion, Darmstadt, Germany) according to the manufacturer's instructions. Injected mRNA concentration was 20–50 ng/µl. Phenol red was added to the RNA samples before injection (0.1% final concentration) in order to allow tracking of successful injections.
The LC50 values ± asymmetric 95% confidence intervals were calculated using the software JMP (SAS, Cary, NC) using the Hill-slope equation for modeling of concentration-response curves: [drawing 1] […]

zebrafish embryos = experiment: Zebrafish embryo test (acute lethality, 48 h static exposure), non-injected embryos; assay type: in vivo, zebrafish (Danio rerio)
Method: as §1, §2
The LC50 values ± asymmetric 95% confidence intervals were calculated using the software JMP (SAS, Cary, NC) using the Hill-slope equation for modeling of concentration-response curves: [drawing 1]
Min and Max were set to 0 and 100%, respectively. x and y represented the nominal exposure concentration and the survival rate (percentage).

Structure (SMILES)	Slope (Hill-slope concentration-response model) ([1]; adh8a mRNA injected)	Slope (Hill-slope concentration-response model) ([1]; adh8a/b mRNA injected)	Slope (Hill-slope concentration-response model) ([1]; adh8b mRNA injected)	Slope (Hill-slope concentration-response model) ([1]; gfp mRNA injected)	Slope (Hill-slope concentration-response model) (zebrafish embryos; exposure 2-50 hpf, with chorion, no mRNA injected, 24-well plates, strain WIK)	Slope (Hill-slope concentration-response model) (zebrafish embryos; exposure 8-56 h, with chorion, non-injected control, crystallization dish, strain OBI)	Slope (Hill-slope concentration-response model) (zebrafish embryos; exposure 24-72 hpf, with chorion, no mRNA injected, 24-well plates, strain WIK)	Slope (Hill-slope concentration-response model) (zebrafish embryos; exposure 24-72 hpf, without chorion, no mRNA injected, 24-well plates, strain WIK)	Slope (Hill-slope concentration-response model) (zebrafish embryos; exposure 72-120 hpf, hatched, no mRNA injected, 24-well plates, strain WIK)	Slope (Hill-slope concentration-response model) (zebrafish embryos; exposure 2-50 hpf, with chorion, no mRNA injected, 24-well plates, strain OBI, n = 1)
C=CCO [allyl alcohol, Allyl alcohol]	1.91	3.24	2.78	5.51	3.94	5.72	3.31	4.19	6.52	
C=CC=O [acrolein]										6.9
O=[N+]([O-])c1ccc(O)cc1 [4-Nitrophenol]	6.04	6.85	9.26	6.52						
CCO [ethanol]	20	10.1	4.9	12.8						
